The source of these data is article PMC11635738.

Experiment [1] addresses T1, FLAG-SREBF1(N) WT (pcDNA3.1-FLAG-Srebf1(N)), N-terminus of SREBF1 (mouse) (UniProt Q9WTN3).
T1 sequence: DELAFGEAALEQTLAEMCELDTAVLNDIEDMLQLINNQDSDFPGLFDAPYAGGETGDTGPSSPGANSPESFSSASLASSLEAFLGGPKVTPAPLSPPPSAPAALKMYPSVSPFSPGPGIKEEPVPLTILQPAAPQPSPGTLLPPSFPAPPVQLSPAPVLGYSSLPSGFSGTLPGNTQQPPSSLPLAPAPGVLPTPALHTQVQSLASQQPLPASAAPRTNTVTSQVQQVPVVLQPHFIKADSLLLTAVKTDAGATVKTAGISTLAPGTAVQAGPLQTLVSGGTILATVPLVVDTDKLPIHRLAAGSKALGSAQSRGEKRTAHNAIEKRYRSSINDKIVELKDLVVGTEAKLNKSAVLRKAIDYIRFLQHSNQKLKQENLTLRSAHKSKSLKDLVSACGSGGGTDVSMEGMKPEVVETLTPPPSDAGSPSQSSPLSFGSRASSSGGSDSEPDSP
Nature of the experiment: co-IP; HEK293T cells co-transfected with myc-mArmc5 and FLAG-Srebf1(N) WT or deletion mutants; lysis in TNE buffer (10 mM Tris-HCl, 150 mM NaCl, 1 mM EDTA, 1% NP40); anti-FLAG M2 Affinity Gel; elution with FLAG peptide; Western blot. (In general: Immunoblotting shows a protein as a band on a membrane.)

Experiment [2] deals with T2, FLAG full-length SREBF1 (pcDNA3.1-FLAG-Srebf1) (mouse) (UniProt Q9WTN3).
T2 sequence: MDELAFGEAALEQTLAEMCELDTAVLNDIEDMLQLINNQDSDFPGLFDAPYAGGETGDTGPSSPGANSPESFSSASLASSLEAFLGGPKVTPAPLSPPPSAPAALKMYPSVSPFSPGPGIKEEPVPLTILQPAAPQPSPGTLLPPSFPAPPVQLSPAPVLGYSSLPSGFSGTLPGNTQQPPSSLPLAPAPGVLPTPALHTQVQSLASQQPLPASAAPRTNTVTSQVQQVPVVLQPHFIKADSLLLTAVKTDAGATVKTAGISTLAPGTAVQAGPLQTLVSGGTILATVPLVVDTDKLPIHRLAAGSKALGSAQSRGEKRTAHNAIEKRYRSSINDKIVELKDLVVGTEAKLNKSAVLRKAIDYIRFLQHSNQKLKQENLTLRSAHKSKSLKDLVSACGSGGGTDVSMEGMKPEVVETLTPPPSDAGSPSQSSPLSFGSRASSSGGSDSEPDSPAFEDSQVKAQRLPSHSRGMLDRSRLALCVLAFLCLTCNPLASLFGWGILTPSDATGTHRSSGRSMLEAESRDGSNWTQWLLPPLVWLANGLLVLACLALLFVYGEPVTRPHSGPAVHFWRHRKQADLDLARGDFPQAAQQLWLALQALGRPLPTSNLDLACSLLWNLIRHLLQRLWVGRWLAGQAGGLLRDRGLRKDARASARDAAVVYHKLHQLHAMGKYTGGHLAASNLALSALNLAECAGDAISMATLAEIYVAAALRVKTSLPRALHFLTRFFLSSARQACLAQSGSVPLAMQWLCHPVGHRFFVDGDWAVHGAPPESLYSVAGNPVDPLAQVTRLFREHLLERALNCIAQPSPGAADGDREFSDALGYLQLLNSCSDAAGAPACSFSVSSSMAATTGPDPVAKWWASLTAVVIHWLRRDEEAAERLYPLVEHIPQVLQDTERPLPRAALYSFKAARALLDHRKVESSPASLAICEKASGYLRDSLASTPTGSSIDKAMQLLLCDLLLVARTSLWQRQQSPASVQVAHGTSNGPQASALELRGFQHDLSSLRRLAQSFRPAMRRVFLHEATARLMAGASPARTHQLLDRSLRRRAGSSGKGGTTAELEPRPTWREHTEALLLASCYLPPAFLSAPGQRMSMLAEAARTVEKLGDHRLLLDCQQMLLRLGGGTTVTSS
Nature of the experiment: co-IP; HEK293T cells transfected with FLAG-Srebf1 (full length) and/or 2xMyc-SCAP together with V5-Armc5 and PA-Insig1; lysis in TNE buffer; anti-FLAG M2 Affinity Gel; elution with FLAG peptide; Western blot.

Results are given in words; binding and its absence hold for the method and conditions named. In cells and extracts the contact can be indirect. Some entries that bind do so weakly or less than the wild type. Sequences can lack the tags named with a protein.

B1: myc-ARMC5 (pcDNA3.1-myc-mArmc5) (protein, UniProt Q5EBP3 1-926)
chain: MAAARPALTDSLSFCLAQLTAAAGEGPGGGKDPATNETPLGRALLALRTRHIKAAEGIERFRARGGLRPLLALLRRTAAAGPAPSQAASGSAPSSVASAGSTPGHAPAAESLLTPSLPMRLRKTLDLALSILANCCTEGACRAEVRRLGGILPLVTILQCVKTDSIQNRTARALGNLAMEPESCRDIHSAGAVPFLVESLTACQDSQCLQSIVRALRNLADSPQHRLALAQQGAVRPLAELLATAPDPALTAALVRALLELSRGCSRACAEQLSLGGALGPLVSLASHPKRAIREAAILILANLCAQGLVRPALGNAGGVEVLLGELRRRRSPGGSSSATQQPLVRAVCLLCREAINRARLRDAGGLELLMGLLQDPGASAWHPRVVAALVGFLYDTGALGKLQALGLVPLLARQLCGEAGEEEEEGIEAASWDFPEERTSGQAEGGSFRSLRLWLISEGYAAGPGDISPDWSPERCPMPEPSESVSPTPGQTSMSTPRTLRKPGRIPAATPEEPWGQEGPALLLLSRFSQAPDPSGALVTGPALCGLLAYVTGAPGPPNPRALRILARLTCNPACLEAFVRTYGAALLRAWLVLGVSPDDWPVPHARPVHRSQHRELGEMLLQNLTVQAESPFGVGALTHLLLSGSPEDRVACALTLPFICRKPTLWRRLLLDQGGLRLLLTALTQPAPHPLFLFFAADSLSCLQGLVSPTASPVPLPALPLELDSPPPCLYEPLLGPAPAPAPDLHFVLDSGLQLPAQRAASAAASPFFRALLSGSFAEAQMDLVPLRGLSPGAAWPVLHHLHGCRGCGAALGPVPPPGQPLLGSKAEEALEAAGRFLLPALEEELEEAVGRIHLSPRGGPESVGEVFRLGRPRLAAHCARWTLEPGQCPRKRALALTGLVEAAGEEAGPLTEALLAVVMGIES
Take B1: the binding result in experiment [1] is given as “binds”.

B2: V5-ARMC5 (pcDNA3.1-V5-Armc5; printed as pcDNA3.1-FLAG-V5-Armc5 in the legend of Figure 9B) (protein, UniProt Q5EBP3 1-926)
chain: MAAARPALTDSLSFCLAQLTAAAGEGPGGGKDPATNETPLGRALLALRTRHIKAAEGIERFRARGGLRPLLALLRRTAAAGPAPSQAASGSAPSSVASAGSTPGHAPAAESLLTPSLPMRLRKTLDLALSILANCCTEGACRAEVRRLGGILPLVTILQCVKTDSIQNRTARALGNLAMEPESCRDIHSAGAVPFLVESLTACQDSQCLQSIVRALRNLADSPQHRLALAQQGAVRPLAELLATAPDPALTAALVRALLELSRGCSRACAEQLSLGGALGPLVSLASHPKRAIREAAILILANLCAQGLVRPALGNAGGVEVLLGELRRRRSPGGSSSATQQPLVRAVCLLCREAINRARLRDAGGLELLMGLLQDPGASAWHPRVVAALVGFLYDTGALGKLQALGLVPLLARQLCGEAGEEEEEGIEAASWDFPEERTSGQAEGGSFRSLRLWLISEGYAAGPGDISPDWSPERCPMPEPSESVSPTPGQTSMSTPRTLRKPGRIPAATPEEPWGQEGPALLLLSRFSQAPDPSGALVTGPALCGLLAYVTGAPGPPNPRALRILARLTCNPACLEAFVRTYGAALLRAWLVLGVSPDDWPVPHARPVHRSQHRELGEMLLQNLTVQAESPFGVGALTHLLLSGSPEDRVACALTLPFICRKPTLWRRLLLDQGGLRLLLTALTQPAPHPLFLFFAADSLSCLQGLVSPTASPVPLPALPLELDSPPPCLYEPLLGPAPAPAPDLHFVLDSGLQLPAQRAASAAASPFFRALLSGSFAEAQMDLVPLRGLSPGAAWPVLHHLHGCRGCGAALGPVPPPGQPLLGSKAEEALEAAGRFLLPALEEELEEAVGRIHLSPRGGPESVGEVFRLGRPRLAAHCARWTLEPGQCPRKRALALTGLVEAAGEEAGPLTEALLAVVMGIES
For B2, the binding entry in experiment [2] was “binds”.
